# About 5,400 (1.8%) of roughly 300,000 compounds were called active. Inconclusive results, whose numbers are uncertain, are shown with a selection of clear calls. Calls come from the whole dose curve; tested in HEK293 cells. Potencies beside an inconclusive call are fits to weak or partial responses and may not hold up. The source holds several records for some structures; these can differ, active in one and inactive in another.
# Experiment: qHTS for inhibitors of binding or entry into cells for Marburg Virus
# Conditions: Marburg virus pseudotyped entry inhibition, cell reporter; series mostly up to 37.8 µM
# Potency is the fitted concentration of half-maximal effect.
row,SMILES,Potency
1,O=C(NC1CCCCC1)C(c1ccccn1)N(C(=O)c1csnn1)c1ccccc1 (stereo not given),inactive
2,O=C(N/N=C/c1cn[nH]c1-c1ccc(Cl)cc1)c1ccc([N+](=O)[O-])cc1,inactive
3,Brc1ccc(CSc2nccn2-c2ccccc2)cc1,"inconclusive: 11.2 µM [inhibitor, single point]"
4,c1ccc(CN2CCC(N=C3NN=C(c4ccc5c(c4)OCCO5)CS3)CC2)cc1,"inconclusive: 11.2 µM [inhibitor, partial curve, poor fit]"
5,Cc1[nH]c2ccc(C(=O)O)cc2c1C,"inconclusive: 32.6 µM [activator, single point]"
6,Cc1cccc(-c2noc(CSc3ccccc3)n2)c1,inactive
7,COc1ccc(C(=O)N2CCOC2CNC(=O)C(=O)NCc2ccc(F)cc2)cc1 (stereo not given),"inconclusive: 25.1 µM [inhibitor, single point]"
8,CCOC(=O)C1(CCCc2ccccc2)CCN(C2CCC2)CC1,"inconclusive: 35.5 µM [inhibitor, single point]"
9,COc1ccc(-c2nnc(C3CCN(S(=O)(=O)c4cccc(Cl)c4)CC3)o2)cc1,inactive
10,C(=NN1CCCCCC1)c1c[nH]c2ccccc12,inactive
11,CC1(CCl)N([O-])C2=C(CCCC2)[N+]1=O (stereo not given),inactive
12,COc1ccc2cc(-c3ccn[nH]3)ccc2c1,"inconclusive: 11.2 µM [inhibitor, single point]"
13,COc1cccc(C(=O)Nc2ccc(N3CCN(C(=O)c4cccs4)CC3)cc2)c1,"inconclusive: 5.62 µM [inhibitor, full curve, poor fit]"
14,CC(C(=O)Nc1cc([N+](=O)[O-])ccc1Cl)N1CCN(c2ccc(O)cc2)CC1 (stereo not given),"inconclusive: 5.62 µM [activator, single point]"
15,CCOC(=O)C1(Cc2ccccc2)CCN(CC2CC=CCC2)CC1 (stereo not given),"inconclusive: 12.6 µM [inhibitor, single point]"
16,COc1cc(-c2nc(SCC(=O)Nc3ccc4c(c3)OCO4)c(-c3ccccc3)[nH]2)cc(OC)c1OC,"inconclusive: 35.5 µM [inhibitor, single point]"
17,COc1ccc(CCN2C(=O)N(c3cccc(C)c3)C(=O)C2CC(=O)Nc2ccccc2)cc1OC (stereo not given),inactive
18,Clc1ccc(CCNc2nc3cc(Cl)c(Cl)cc3n3cnnc23)cc1,inactive
19,Cc1ccccc1N(C(=O)CCC(=O)Nc1ccccn1)C(C(=O)NC(C)C)c1ccc(O)cc1 (stereo not given),active: 7.08 µM
20,Clc1cnc(Oc2ccc(Oc3ncc(Cl)cc3Cl)cc2)c(Cl)c1,active: 1 µM
21,Cc1ccc2nc(SCCC(=O)O)cc(C)c2c1,"inconclusive: 11.2 µM [activator, partial curve, poor fit]"
22,O=C1C2C3C=CC(O3)C2C(=O)N1N=Cc1cccc2ccccc12 (stereo not given),"inconclusive: 35.5 µM [activator, partial curve, poor fit]"
23,Nc1cc2c(cc1Br)-c1ccc(F)cc1C2O (stereo not given),inactive
24,CCN1C(=NCCc2ccc(Br)cc2)NC(c2ccccc2)C(C(=O)OC)=C1C (stereo not given),"inconclusive: 2.66 µM [inhibitor, single point]"

row,SMILES,Potency
1,Cc1cccc2sc(N(CCCN(C)C)C(=O)CCc3ccccc3)nc12,"inconclusive: 35.5 µM [inhibitor, single point]"
2,CC(C)CC(=O)/C(=C/c1ccc(N(C)C)cc1)n1cncn1,inactive
3,CCOC(=O)CC(NC(=O)Cn1nnc(-c2ccccc2Cl)n1)c1ccc(OC)cc1 (stereo not given),inactive
4,COCC(=O)Nc1nnc(-c2cccs2)s1,"inconclusive: 20 µM [inhibitor, single point]"
5,Cc1ccc(-c2nc(S(=O)(=O)c3ccc(C)cc3)c(SCC(N)=O)o2)cc1,"inconclusive: 0.891 µM [activator, full curve, poor fit]"
6,O=C(Cc1ccc([N+](=O)[O-])cc1)N1CCc2ccccc2C1,inactive
7,Cc1cccc(N2CCN(C(=O)c3ccc4c(c3)N(Cc3ccccc3)C(=O)c3ccccc3S4(=O)=O)CC2C)c1 (stereo not given),"inconclusive: 35.5 µM [inhibitor, single point]"
8,C=CCN1C(=O)[C@@]2(CC(C)=C[C@@H](COc3ccccc3)O2)c2ccccc21,inactive
9,COc1ccc(/C=N/NC(=S)Nc2cccc(C(=O)O)c2)cc1OC,"inconclusive: 35.5 µM [inhibitor, single point]"
10,O=C(COc1ccc2ccccc2c1CN1CCOCC1)N1CCc2ccccc21,"inconclusive: 18.3 µM [inhibitor, single point]"
11,Oc1ccc(/C=N/Nc2nc(-c3ccc(Cl)cc3)cc(C(F)(F)F)n2)cc1,active: 11.2 µM
12,Cc1ccc2[nH]c(=O)c(C3C(C#N)=C(N)Oc4c3ccc3cccnc43)cc2c1 (stereo not given),"inconclusive: 11.2 µM [inhibitor, partial curve, poor fit]"
13,CCOC(=O)C(=CNc1nc(-c2ccc3ccccc3c2)cs1)C(=O)OCC,"inconclusive: 11.2 µM [activator, partial curve, poor fit]"
14,O=C(c1ccc(-c2ccccc2Cl)o1)N1CCN(S(=O)(=O)c2cccs2)CC1,"inconclusive: 35.5 µM [inhibitor, single point]"
15,CCOc1cc(NC(=O)CCl)c(OCC)cc1NC(=O)CCl,"inconclusive: 35.5 µM [inhibitor, partial curve, poor fit]"
16,Cc1ccn2c(=O)nc(SCc3cccc(C(F)(F)F)c3)nc2c1,"inconclusive: 5.62 µM [activator, single point]"
17,O=C1CCN(Cc2ccccc2)C(=O)N1,inactive
18,CC(=O)N1N=C(c2ccc(C)cc2)OC1c1ccc(Br)cc1 (stereo not given),"inconclusive: 3.16 µM [inhibitor, single point]"
19,CCc1ccccc1NC(=O)c1cn(C)c(=O)c2ccccc12,"inconclusive: 35.5 µM [inhibitor, single point]"
20,O=C(CNc1cc(S(=O)(=O)N2CCCC2)ccc1OCC(F)(F)F)Nc1cccc(C(F)(F)F)c1,"inconclusive: 11.2 µM [inhibitor, partial curve, poor fit]"
21,COc1ccc(CCNS(=O)(=O)c2c(N)n(C)c(=O)n(C)c2=O)cc1OC,"inconclusive: 6.31 µM [activator, single point]"
22,COc1c(Cl)cc(Cl)cc1C(=O)Nc1cccc(-c2nc3ccccc3o2)c1C,"inconclusive: 31.6 µM [activator, single point]"
23,O=S1(=O)c2cc(Cl)ccc2Oc2ccccc2CN1Cc1cccc(F)c1,"inconclusive: 3.53 µM [inhibitor, full curve, poor fit]"
24,Cc1cccc(OCC(=O)N2CCc3ccccc3C2)c1,"inconclusive: 10 µM [activator, partial curve, poor fit]"

row,SMILES,Potency
1,Cc1ccc(C(=O)Nc2cccnc2)cc1S(=O)(=O)N1CCCCC1,"inconclusive: 35.5 µM [inhibitor, single point]"
2,COc1ccccc1-c1nnc2n1N=C(C)CS2,inactive
3,O=C(Cn1c(=O)sc2ccccc21)NCCOc1ccccc1F,"inconclusive: 6.31 µM [activator, single point]"
4,COCCNC(=O)CSc1nc2cc(OC)c(OC)cc2c(=O)n1CCc1ccc(S(N)(=O)=O)cc1,"inconclusive: 6.31 µM [activator, partial curve, poor fit]"
5,COc1ccc(S(=O)(=O)N2CCCC2CNC(=O)C(=O)NCc2ccccn2)cc1 (stereo not given),inactive
6,Cn1c(=O)c(C(=O)CCl)c(N)n(CC2CC2)c1=O,inactive
7,Brc1ccc(NC2=Nc3ccccc3CC2)cc1,inactive
8,CCC(=O)Nc1ccc(C(=O)NNC(=O)c2ccc([N+](=O)[O-])cc2)cc1,inactive
9,CC(NC(=O)c1cc(S(=O)(=O)N(C)C)ccc1Cl)C1CC2CCC1C2 (stereo not given),"inconclusive: 35.5 µM [inhibitor, single point]"
10,CCCN1CCN(CC(=O)Nc2nnc(CC)s2)CC1,"inconclusive: 35.5 µM [inhibitor, partial curve, poor fit]"
11,CCN(CC)CCCn1c2c(c(SCC(=O)Nc3cccc4ccccc34)nc1=O)CCC2,"inconclusive: 11.2 µM [inhibitor, single point]"
12,CC=COC(=O)N[C@@H](c1ccccc1)[C@]1(C(=O)OC)CCCC1=O,"inconclusive: 1.19 µM [inhibitor, partial curve]"
13,O=C(c1ccccc1)c1sc(N2CCOCC2)nc1-c1ccccc1,"inconclusive: 0.631 µM [inhibitor, full curve, poor fit]"
14,CSc1nc(NCCOC(C)=O)c(C#N)c(-c2ccc(C(C)(C)C)cc2)n1,"inconclusive: 7.94 µM [activator, partial curve, poor fit]"
15,COc1ccc(C=CNC(=O)Cc2ccc(OC)c(OC)c2)cc1,inactive
16,Cc1ccc2c(CSc3nnc(N)s3)cc(=O)oc2c1,inactive
17,Cc1ccc(-n2nnnc2-c2ccccc2Br)cc1,"inconclusive: 15.8 µM [inhibitor, single point]"
18,Cc1ccc(N2CCN(/N=C/C=C/c3ccccc3)CC2)cc1,inactive
19,Brc1c(C[n+]2ccccc2)nc2ccccn12,inactive
20,CCN(C(=O)Cn1c(C(=O)OC)cc2sc(Cl)cc21)c1cccc(C)c1,"inconclusive: 5.62 µM [activator, single point]"
21,CCCNC(=S)NCc1ccc(Cl)cc1,"inconclusive: 0.112 µM [inhibitor, full curve, poor fit]"
22,CCN(CC)S(=O)(=O)c1ccc(Cl)c(NC(=O)COC(=O)c2c(C)noc2C)c1,"inconclusive: 2.24 µM [inhibitor, partial curve, poor fit]"

# Among those listed so far, these have bromine:
row,SMILES,Potency
3,Brc1ccc(CSc2nccn2-c2ccccc2)cc1,"inconclusive: 11.2 µM [inhibitor, single point]"
23,Nc1cc2c(cc1Br)-c1ccc(F)cc1C2O (stereo not given),inactive
24,CCN1C(=NCCc2ccc(Br)cc2)NC(c2ccccc2)C(C(=O)OC)=C1C (stereo not given),"inconclusive: 2.66 µM [inhibitor, single point]"
18,CC(=O)N1N=C(c2ccc(C)cc2)OC1c1ccc(Br)cc1 (stereo not given),"inconclusive: 3.16 µM [inhibitor, single point]"
7,Brc1ccc(NC2=Nc3ccccc3CC2)cc1,inactive
17,Cc1ccc(-n2nnnc2-c2ccccc2Br)cc1,"inconclusive: 15.8 µM [inhibitor, single point]"
19,Brc1c(C[n+]2ccccc2)nc2ccccn12,inactive

# No new results follow: entries from further up.
row,SMILES,Potency
13,CCOC(=O)C(=CNc1nc(-c2ccc3ccccc3c2)cs1)C(=O)OCC,"inconclusive: 11.2 µM [activator, partial curve, poor fit]"
14,O=C(c1ccc(-c2ccccc2Cl)o1)N1CCN(S(=O)(=O)c2cccs2)CC1,"inconclusive: 35.5 µM [inhibitor, single point]"
